# Patent US12419931B2, “Anti-cancer composition” (ACUPHARM INTERNATIONAL PROPRIETARY LIMITED, priority 2020, dated 2025)
# At least one compound was matched to its structure with a doubt left. Some entries repeat one wording, which the source may state once for all of them.
# Tested on: cultured tissue from needle biopsy, Breast DCIS papillary neoplasm
# Test: dose response study with cumulative cell death on cultured patient biopsy tissue (patient 19055)
# Type: cell-based, human
# Settings: in vitro cultured biopsy sample, patient 19055, Breast DCIS papillary neoplasm
# Procedure: Comparative studies were performed using curcumin extract as described above (referred to as ACPJL 08), Sutherlandia leaf extract in water (referred to as ACPJL 35), Sutherlandia leaf extract in 50% ethanol and water solution (referred to as ACPJL 28), Sutherlandia leaf extract in 90% ethanol and water solution (referred to as ACPJL 07) and a combinatorial formulation using the curcumin extract and Sutherlandia leaf extract in water and alcohol according to this invention (referred to as ACPJL 20). These extracts were compared to a number of known botanical isolates with anti-cancer activity, as well as a number of known anti-cancer drugs, using a dose response design with cumulative cell death as the dependent variable. These studies were conducted on in vitro samples of cultured tissue, taken as biopsy samples from patients as part of a standard culture and testing process done in order to optimise treatment.
# A representative sample of such a study is provided herein below.
# Summary of Study of Patient with Assigned Number 19055
# Patient from whom sample was obtained was a person presenting with a diagnosis of Breast DCIS papillary neoplasm. The sample was obtained via needle biopsy, before being cultured.
row,Structure (SMILES),overall assessment in standard culture and testing process
1,CNC(=O)c1ccccc1Sc1ccc2c(/C=C/c3ccccn3)n[nH]c2c1 [Axitinib],potential benefit
2,Cc1nc(Nc2ncc(C(=O)Nc3c(C)cccc3Cl)s2)cc(N2CCN(CCO)CC2)n1 [Dasatinib],potential benefit
